Some of these results come from one statement about several compounds together. At least one compound was matched to its structure with a doubt left.
Tested on: mottled-brindled (mo-br) mouse
Test: Survival of Menkes (mo-br) mice after subcutaneous injections
Assay type: in vivo
Experimental: Kaplan-Meier Survival of mice after subcutaneous injections of ES-Cu(II) on postnatal days 7 and 10. Log-Rank statistical analysis was conducted to assess significance of survival among mo-br mice cohorts. Mo-br mice treated with 3.625 mg/kg/dose.
FIG. 8 illustrates mean body weight gain of mice after subcutaneous injections on postnatal days 7 and 10. Cohorts and number of mice/cohort are designated as follows: WT vehicle (n=13), WT Cu(II)-ES (n=12), mo-br vehicle (n=9), mo-br Cu(II)-ES (n=27), mo-br Cu(II)-2His (n=6), and mo-br ES (n=6). Growth curves are reported as the mean of each cohort±SD measured weekly.
To evaluate the potential of Cu(II)-ES in a mouse model of human copper deficiency disorder, the well-characterized mottled-brindled (mo-br) mouse model (C57BL/6-Atp7a^mo-br/J, Jackson Laboratory Stock #002566) that closely mimics the clinical and biochemical phenotypes of Menkes disease was chosen. Like in humans, these mice are characterized by mutation in ATP7a, which is an X-linked gene and therefore its mutation only affects males.

Structure (SMILES): CN(NC(=O)CC(=O)NN(C)C(=S)c1ccccc1)C(=S)c1ccccc1 [ES, elesclomol]
- time of death after birth (mouse, in vivo, sc): ≤ 20 days

Structure (SMILES): N[C@@H](Cc1cnc[nH]1)C(=O)[O-].N[C@@H](Cc1cnc[nH]1)C(=O)[O-].[Cu+2] [Cu(II)-2Histidinate]
- time of death after birth (subcutaneous, postnatal days 7 and 10): ≤ 20 days

From patent US20240285555A1, “COMPOSITIONS FOR THE TREATMENT OF COPPER DEFICIENCY AND METHODS OF USE” (priority 2018, published 2024)
